Data reported in patent US20120094910 (published 2012).

Columns and labels:
[1] = general procedure: Fmoc solid-phase peptide synthesis; Rink amide resin; DIC/HOBt; conditions: whole synthesis, scale 10 mmol
[2] = general procedure: Fmoc solid-phase peptide synthesis; Rink amide resin (10 g, loading 1.0 mmol/g); DIC/HOBt; conditions: purification step, RP-HPLC and LC-MS

Question: What does the source list for “Mpa-Tyr-Phe-Gln-Asn-Cys-Pro-DArg-Gly-NH2”?
Answer: final HPLC purity ([1]; RP-HPLC and LC-MS): ˜95%; isolated mass [1]: 9.0 g; final purity (method not given) [2]: ˜95%
